The target of test [1] is GST-p53 fragment #1 (93-142 AA) (human) (UniProt P04637). As to the kind of experiment: pull-down; agarose bead-conjugated GST-p53 (93-292 AA) and GST-p53 fragments (#1-4) incubated with A549 cell lysates; bound proteins blotted; only the target purified.
For test [2], the target named is EEA1 (UniProt Q15075). Briefly: co-IP; immunoprecipitation (IP) analysis of caveolin-1 and EEA1, without and with RP53 (Figure S3D); cells not shown.

Amino acid sequences for entries named in this document (tags omitted).
UniProt Q15075: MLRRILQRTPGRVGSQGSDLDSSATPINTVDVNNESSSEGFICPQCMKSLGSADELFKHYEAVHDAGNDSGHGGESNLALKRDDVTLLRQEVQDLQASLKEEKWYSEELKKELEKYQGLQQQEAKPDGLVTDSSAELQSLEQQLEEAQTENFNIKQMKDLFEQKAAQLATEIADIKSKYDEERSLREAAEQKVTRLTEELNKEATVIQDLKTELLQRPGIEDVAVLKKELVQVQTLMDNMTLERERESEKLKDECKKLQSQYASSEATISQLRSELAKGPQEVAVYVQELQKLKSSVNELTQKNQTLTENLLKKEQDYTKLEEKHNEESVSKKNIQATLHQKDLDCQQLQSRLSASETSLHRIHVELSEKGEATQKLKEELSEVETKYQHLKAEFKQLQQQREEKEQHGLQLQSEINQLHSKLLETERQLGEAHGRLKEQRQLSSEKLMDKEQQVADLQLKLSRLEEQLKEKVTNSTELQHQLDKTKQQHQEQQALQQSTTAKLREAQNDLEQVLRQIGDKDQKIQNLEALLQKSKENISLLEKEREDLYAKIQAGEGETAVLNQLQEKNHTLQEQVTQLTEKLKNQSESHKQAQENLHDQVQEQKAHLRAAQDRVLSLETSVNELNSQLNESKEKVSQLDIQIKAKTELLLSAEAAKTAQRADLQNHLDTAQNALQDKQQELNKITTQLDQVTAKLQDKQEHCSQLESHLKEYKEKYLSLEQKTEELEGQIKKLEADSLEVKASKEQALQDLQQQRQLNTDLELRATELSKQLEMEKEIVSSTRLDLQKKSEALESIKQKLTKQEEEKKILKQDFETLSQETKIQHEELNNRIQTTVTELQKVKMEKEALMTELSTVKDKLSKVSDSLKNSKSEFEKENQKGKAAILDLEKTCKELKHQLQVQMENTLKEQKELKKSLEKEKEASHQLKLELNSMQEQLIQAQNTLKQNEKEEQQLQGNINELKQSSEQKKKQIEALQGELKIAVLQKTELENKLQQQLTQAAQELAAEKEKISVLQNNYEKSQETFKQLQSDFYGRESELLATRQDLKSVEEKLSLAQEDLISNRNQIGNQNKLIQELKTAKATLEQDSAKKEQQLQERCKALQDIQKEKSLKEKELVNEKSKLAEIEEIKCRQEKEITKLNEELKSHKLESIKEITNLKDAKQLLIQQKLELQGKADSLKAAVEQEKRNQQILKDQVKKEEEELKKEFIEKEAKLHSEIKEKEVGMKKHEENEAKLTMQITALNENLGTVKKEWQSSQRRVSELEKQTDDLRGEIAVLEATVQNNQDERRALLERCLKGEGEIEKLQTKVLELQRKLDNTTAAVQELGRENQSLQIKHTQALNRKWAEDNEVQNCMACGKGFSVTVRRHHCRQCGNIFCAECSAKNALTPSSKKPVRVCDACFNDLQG
UniProt Q03135: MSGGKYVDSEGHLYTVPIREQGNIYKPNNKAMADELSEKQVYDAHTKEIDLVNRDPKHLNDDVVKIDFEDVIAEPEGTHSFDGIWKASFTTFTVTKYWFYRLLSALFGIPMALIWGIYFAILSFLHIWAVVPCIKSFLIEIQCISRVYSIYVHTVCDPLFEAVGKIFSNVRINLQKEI

From article PMC3926846 come the findings set out here.

No constants are given. Whether binding was seen depends on the method and setting. In cells and extracts the contact can be indirect. Some results given as binding are weak or reduced against the parent protein; the word gives no strength.

On to caveolin-1 (from UniProt Q03135 1-178), for which the binding entry in test [1] and in test [2] was “binds” in each case.
